Reference: publication PMC12002053
Results are given in words; binding and its absence hold for the method and conditions named. Binding seen in cells or lysates may run through a third protein. Some results given as binding are weak or reduced against the parent protein; the word gives no strength.

Chains of the proteins cited; added tags and fusions are not shown.
UniProt P62633: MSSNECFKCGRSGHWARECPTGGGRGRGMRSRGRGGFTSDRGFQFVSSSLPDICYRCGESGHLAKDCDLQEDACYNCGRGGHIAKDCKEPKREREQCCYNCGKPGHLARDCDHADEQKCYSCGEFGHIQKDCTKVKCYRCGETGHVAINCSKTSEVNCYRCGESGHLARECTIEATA

Tests used:
[1] = molecular target: T1, endogenous KIF1C of MDA-MB-231 cells (human (endogenous in MDA-MB-231)) (UniProt O43896); assay: proximity ligation; DuoLink In Situ Red PLA with rabbit anti-KIF1C and mouse anti-CNBP on fixed, permeabilised MDA-MB-231 cells (pCrispr or siCtrl controls; signal reduced in CNBP-knockout cells or upon KIF1C knockdown)
T1 sequence: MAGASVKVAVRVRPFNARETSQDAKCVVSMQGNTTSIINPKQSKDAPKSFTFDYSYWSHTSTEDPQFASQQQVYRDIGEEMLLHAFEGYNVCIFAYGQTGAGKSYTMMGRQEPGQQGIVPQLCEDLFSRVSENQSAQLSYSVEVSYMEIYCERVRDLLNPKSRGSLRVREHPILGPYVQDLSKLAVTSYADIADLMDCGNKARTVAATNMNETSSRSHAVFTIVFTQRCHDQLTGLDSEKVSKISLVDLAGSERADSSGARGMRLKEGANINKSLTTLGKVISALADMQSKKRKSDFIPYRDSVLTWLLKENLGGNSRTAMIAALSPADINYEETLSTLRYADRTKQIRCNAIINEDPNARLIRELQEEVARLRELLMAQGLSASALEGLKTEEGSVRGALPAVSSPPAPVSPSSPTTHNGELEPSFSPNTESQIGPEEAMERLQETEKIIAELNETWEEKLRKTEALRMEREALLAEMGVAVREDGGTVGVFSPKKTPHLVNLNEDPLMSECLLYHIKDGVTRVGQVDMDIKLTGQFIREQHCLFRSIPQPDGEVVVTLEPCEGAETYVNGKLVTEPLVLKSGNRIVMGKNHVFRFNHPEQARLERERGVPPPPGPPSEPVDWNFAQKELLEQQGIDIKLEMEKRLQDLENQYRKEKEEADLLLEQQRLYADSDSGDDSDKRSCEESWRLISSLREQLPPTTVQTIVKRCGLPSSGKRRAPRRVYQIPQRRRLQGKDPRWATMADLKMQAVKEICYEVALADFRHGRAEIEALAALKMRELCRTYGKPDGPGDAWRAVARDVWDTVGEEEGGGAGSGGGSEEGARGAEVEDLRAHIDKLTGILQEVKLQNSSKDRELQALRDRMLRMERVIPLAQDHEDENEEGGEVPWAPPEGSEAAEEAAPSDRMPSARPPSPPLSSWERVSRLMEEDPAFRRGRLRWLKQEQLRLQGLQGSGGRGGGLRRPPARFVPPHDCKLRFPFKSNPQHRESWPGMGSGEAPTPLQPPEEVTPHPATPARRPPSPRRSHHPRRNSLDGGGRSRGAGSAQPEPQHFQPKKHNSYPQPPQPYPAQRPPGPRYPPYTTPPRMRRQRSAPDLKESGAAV

[2] = molecular target: T1, endogenous KIF1C of MDA-MB-231 cells (human (endogenous in MDA-MB-231)); assay: co-IP; endogenous KIF1C immunoprecipitated with anti-KIF1C (Bethyl A301-070A) on Protein G Dynabeads from control (pCrispr) cell lysate; 10mM Tris-Cl pH 7.4, 100mM NaCl, 2.5mM MgCl2, 0.5% Triton X-100; 1.5 h at 4°C; CNBP blot

binding [1]: binds
binding [2]: binds weakly
Substance: endogenous CNBP of MDA-MB-231 cells (from UniProt P62633 1-177)
